# Data published in patent US20100160369A1, “S1P1 Agonists and Methods of Making And Using” (EXELIXIS, INC., priority 2008, published 2010).
# The chains behind the UniProt entries cited, without tags or fusion partners.
# UniProt P21453, whole entry: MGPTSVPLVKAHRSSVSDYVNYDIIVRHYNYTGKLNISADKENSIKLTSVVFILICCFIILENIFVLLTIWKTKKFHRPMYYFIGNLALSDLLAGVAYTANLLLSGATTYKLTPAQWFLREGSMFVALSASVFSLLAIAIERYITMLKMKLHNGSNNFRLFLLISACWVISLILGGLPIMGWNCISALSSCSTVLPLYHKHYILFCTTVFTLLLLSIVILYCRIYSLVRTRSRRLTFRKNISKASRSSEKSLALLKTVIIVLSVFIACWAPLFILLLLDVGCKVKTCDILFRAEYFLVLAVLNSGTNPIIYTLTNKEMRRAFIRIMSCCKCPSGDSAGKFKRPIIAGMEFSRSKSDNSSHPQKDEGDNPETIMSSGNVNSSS
# UniProt P32121, whole entry partner: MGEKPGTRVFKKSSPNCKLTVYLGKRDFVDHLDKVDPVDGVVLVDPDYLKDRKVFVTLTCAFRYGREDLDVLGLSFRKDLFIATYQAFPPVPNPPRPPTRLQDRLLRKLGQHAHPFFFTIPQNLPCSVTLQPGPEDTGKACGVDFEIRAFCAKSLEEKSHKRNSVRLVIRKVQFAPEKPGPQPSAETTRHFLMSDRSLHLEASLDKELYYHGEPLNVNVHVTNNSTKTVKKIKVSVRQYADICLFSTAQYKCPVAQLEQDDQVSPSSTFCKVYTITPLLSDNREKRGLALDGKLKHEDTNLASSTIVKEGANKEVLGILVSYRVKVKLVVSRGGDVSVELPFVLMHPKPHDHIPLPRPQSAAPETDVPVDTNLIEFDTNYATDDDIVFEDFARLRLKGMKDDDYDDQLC
# The structures given here were assigned with low confidence; some may be wrong.
# Tests used:
# S1P1 [1] = target: T1, S1P1 (Homo sapiens, UniProt P21453); assay: CNG cAMP Assay (Assay 1); conditions: read-out: Assay 1 EC50
# Protocol: Frozen HEK293 cells expressing the CNG channel and S1P1 (BD Biosciences, San Jose, Calif.) were thawed and plated into the wells of a black, clear bottom, 384-well CellBind plate (Corning, Corning, N.Y.) at 14,000 cells per well. HEK293 cells expressing the CNG channel and CB1 (BD Biosciences) were cultured and plated under the same conditions. The cells were incubated for 16 h at 37° C. in complete DMEM medium (Invitrogen Carlsbad, Calif.) containing 10% FBS (HyClone Logan, Utah), 250 μg/mL geneticin (Invitrogen), and 1 μg/mL puromycin (Sigma-Aldrich, St. Louis, Mo.). A membrane potential dye (BD Biosciences) was added and the plates were incubated for 2-2.5 h at room temperature.
# Test compounds were tested at maximum concentrations of 10 μM. […] The assay plate was read before compound addition (T0) and after the 90 min incubation (T90) using an EnVision plate reader (PerkinElmer, Waltham, Mass.) at an excitation wavelength of 350 nm and an emission wavelength of 590 nm. The T90/T0 ratio was determined for each concentration of the test compounds. The percent agonist activity was determined as [(test compound−DMSO alone control)/(NECA alone control−DMSO alone control)*100]. […]
# Assay 1 is the CNG cAMP Assay as described in Biological Example 1. […] EC50's were measured unless otherwise noted. […]
# S1P1 [2] = target: T1, S1P1; assay: Tango β-arrestin Recruitment Assay in HEK293 cells (Assay 2a); conditions: read-out: Assay 2a EC50
# S1P1 [3] = target: T1, S1P1; assay: Tango β-arrestin Recruitment Assay in U2OS cells (Assay 2b); conditions: read-out: Assay 2b EC50
EC50 (S1P1 [3]) [nM],SMILES,EC50 (S1P1 [1]) [nM],EC50 (S1P1 [2]) [nM]
< 100,CC(CO)Oc1cc(Cl)c(-c2noc(-c3cn4cc(C(F)(F)F)cc(Cl)c4n3)n2)cc1Cl (centres unmarked),< 100,< 100
–,OCC1CC1c1ccc(-c2noc(-c3cn4cc(C(F)(F)F)cc(Cl)c4n3)n2)c(Cl)c1 (centres unmarked),< 100,< 100
